# Laboratory results: PubChem BioAssay AID1671190 (National Center for Advancing Translational Sciences (NCATS), 2021)
# Protein sequences, listed by entry. Tags and fused reporters are not part of them.
# UniProt P18054, whole entry, looked up: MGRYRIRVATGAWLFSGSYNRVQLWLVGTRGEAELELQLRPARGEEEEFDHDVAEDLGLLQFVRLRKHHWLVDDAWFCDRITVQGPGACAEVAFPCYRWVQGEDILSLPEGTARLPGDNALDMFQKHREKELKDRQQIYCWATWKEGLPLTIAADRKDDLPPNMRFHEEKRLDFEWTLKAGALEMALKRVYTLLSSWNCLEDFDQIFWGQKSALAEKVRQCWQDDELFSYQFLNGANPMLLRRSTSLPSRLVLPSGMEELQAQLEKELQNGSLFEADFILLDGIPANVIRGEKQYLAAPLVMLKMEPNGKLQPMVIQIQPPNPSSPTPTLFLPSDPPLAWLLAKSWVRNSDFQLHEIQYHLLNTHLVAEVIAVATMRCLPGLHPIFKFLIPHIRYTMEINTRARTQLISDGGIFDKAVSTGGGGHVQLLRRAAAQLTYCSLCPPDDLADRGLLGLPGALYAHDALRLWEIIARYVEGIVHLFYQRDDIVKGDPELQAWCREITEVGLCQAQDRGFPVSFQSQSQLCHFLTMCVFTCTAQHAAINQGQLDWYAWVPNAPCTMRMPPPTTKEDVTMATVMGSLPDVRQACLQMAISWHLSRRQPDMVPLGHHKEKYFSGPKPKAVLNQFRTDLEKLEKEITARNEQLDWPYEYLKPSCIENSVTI
# Hit rate of the full screen: of about 580,000 compounds, about 6,100 (1.1%) were called active. Inconclusive means that the source gave no clear call. Such entries were picked first, then a sample of the others. Calls follow the shape of the dose curve; as a rule, active = well fitted inhibition curve with a large enough effect; inconclusive = small, poorly fitted or top-dose-only effect, or another doubt; inactive = no such curve, though single readings can be large or run the other way. Potencies of inconclusive entries are doubtful fits and often do not repeat.
# Target: Polyunsaturated fatty acid lipoxygenase ALOX12 (Homo sapiens) (UniProt P18054)
# Assay: Primary qHTS assay for inhibitors of human arachidonate 12S-lipoxygenase (ALOX12): Round 2
# Settings: purified 12hLO, xylenol orange hydroperoxide absorbance; activity change, negative = inhibition: at 108 µM (top of the series) unless noted
# Procedure, shortened: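 Hydroperoxide product was detected by ferrous iron/xylenol orange as the 573 to 405 nm absorbance ratio. Arachidonic acid at 40 uM (final) was turned over for 30 min at room temperature by 150 nM human 12hLO, pH 7.0 Hepes buffer, after 15 min compound preincubation.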
# % is scaled to controls: 0 for no effect and ±100 for the full control effect; potency is read from the fitted curve at half-maximal effect.
Compound,Potency,"activity change, negative = inhibition"
Cc1cccc(C)c1NC(=S)N1CCCN(Cc2ccc(F)cc2)C1,"inconclusive: 50.1 µM [inhibitor, partial curve, poor fit]",
O=C(c1cc(C2CCCCN2S(=O)(=O)c2ccc(F)cc2F)on1)N1CCOCC1 (stereo not drawn),"inconclusive: 112 µM [inhibitor, partial curve, poor fit]",
CC(=O)N(c1cccc(C)c1)c1nc(COc2ccccc2C(N)=O)cs1,"inconclusive: 39.8 µM [inhibitor, partial curve]",
CCOc1ccc(NC(=O)c2n[nH]c(=O)c3ccccc23)cc1OCC,,inactive: -2.81%
O=C1ON=C(c2ccccc2)/C1=C/c1ccco1,active: 7.94 µM,
CCOc1cc(C#N)ccc1OC(C(=O)NC1CC1)c1ccccc1 (stereo not drawn),"inconclusive: 79.4 µM [inhibitor, single point]",
O=C(CCc1nnc(-c2ccc3c(c2)OCO3)o1)NCCc1ccccc1F,,inactive: 1.38%
O=C(Nc1ccc(-c2ccccc2)cc1)c1ccccc1C(F)(F)F,"inconclusive: 70.8 µM [inhibitor, partial curve, poor fit]",
O=C([C@@H]1C[C@H](Oc2ccccc2)CN1C(=O)CCc1c[nH]c2ccccc12)N1CCOCC1,,inactive: 57.1%
COc1ccc(-c2cc(C(F)F)n3ncc(C(=O)N4CCN5CCCC5C4)c3n2)cc1 (stereo not drawn),"inconclusive: 126 µM [inhibitor, single point]",
COc1cc2ccccc2cc1C(=O)N1CCN(CC(=O)Nc2ccc(F)cc2)CC1,,inactive: -2.91%
Cc1ccccc1N1C(=O)CN(Cc2sccc2C)C1=S,,inactive: -24.4%
CC1CCCN(C(=O)C(C)Nc2cc(Cl)ccc2N2CCOCC2)C1 (stereo not drawn),"inconclusive: 89.1 µM [inhibitor, partial curve, poor fit]",
O=C(Cn1cnc2sc3c(c2c1=O)CCC3)NC1CCS(=O)(=O)C1 (stereo not drawn),,inactive: -18.5%
Cc1ccccc1-c1nc(NCc2cccnc2)c2ccccc2n1,active: 28.2 µM,
O=C(NCc1cc2ccccc2[nH]1)c1cn[nH]n1,"inconclusive: 63.1 µM [inhibitor, partial curve, poor fit]",
O=C(Nc1ccc(Cl)c(C(F)(F)F)c1)[C@@H]1CC=C[C@@H]2CCN(Cc3ccc(Cl)c(Cl)c3)C(=O)[C@@H]21,,inactive: -8.69%
O=C(/C=C/c1ccccc1Cl)Nc1ccc(-c2ccccc2)cc1,,inactive: 4.19%
Cc1cccc(NNC(N)=S)c1C,"inconclusive: 44.7 µM [inhibitor, partial curve, poor fit]",
COc1ccc(CCN2CCCC(CN(C)Cc3cc(OC)c(OC)c(OC)c3)C2)cc1 (stereo not drawn),,inactive: -11.5%
c1nc(NC2CCNCC2)c2cc(-c3ccc4c(c3)OCO4)ccc2n1,"inconclusive: 12.6 µM [inhibitor, full curve, poor fit]",
COc1ccc(CCNc2ncnc3c2CN(C2CCCC2)C(=O)CN3C)cc1,,inactive: 1.03%

Compound,Potency,"activity change, negative = inhibition"
Cc1ccc(Oc2cc(C#N)c(C#N)cc2Oc2ccc(C)c(C)c2)cc1C,,inactive: 39.9%
CCOC(=O)N1CCC(NC(=O)c2ccc(CNS(=O)(=O)c3ccc(F)cc3)cc2)CC1,,inconclusive: -31% [inhibitor]
CC(=O)C1=C(O)C(=O)N(c2ccc(S(N)(=O)=O)cc2)C1c1ccc([N+](=O)[O-])cc1 (stereo not drawn),"inconclusive: 35.5 µM [inhibitor, full curve, poor fit]",
O=c1[nH][nH]c(C(F)(F)F)c1C=Nc1cccc(Cl)c1,"inconclusive: 6.31 µM [inhibitor, full curve, poor fit]",
CCOc1ccc(Nc2nc(NCC3CCCO3)c3ccccc3n2)cc1 (stereo not drawn),"inconclusive: 44.7 µM [inhibitor, partial curve, poor fit]",
COc1ccc(/C=C/C(=O)c2ccc(C)c([N+](=O)[O-])c2)cc1O,"inconclusive: 20 µM [inhibitor, partial curve, poor fit]",
O=C(NC1CCCC1)C(C1CC1)n1c(-c2ccnc3ccccc23)nc2ccccc21 (stereo not drawn),"inconclusive: 35.5 µM [inhibitor, single point]",
CCOC(=O)Nc1nc2ccc(Cn3cccc3)cc2[nH]1,"inconclusive: 112 µM [inhibitor, partial curve, poor fit]",
CCn1c2ccccc2c2cc(/C=C(/C#N)C(N)=S)ccc21,"inconclusive: 20 µM [inhibitor, partial curve, poor fit]",
O=C1CC(c2ccc(Cl)cc2)Oc2ccc(Cl)cc21 (stereo not drawn),,inactive: -7.77%
Cc1ccc(-c2cc(C(=O)O)c3cc(Br)ccc3n2)s1,inactive,
Cc1ccc(NC(=S)N/N=C2\CC3CC=CC23)c(C)c1 (stereo not drawn),"inconclusive: 44.7 µM [inhibitor, partial curve, poor fit]",
CCCN(C(=O)C1Cc2ccccc2C(=O)O1)c1c(N)n(Cc2ccccc2)c(=O)[nH]c1=O (stereo not drawn),"inconclusive: 112 µM [inhibitor, single point]",
NS(=O)(=O)c1ccc(NC2(C(=O)O)CCCC2)cc1,"inconclusive: 50.1 µM [inhibitor, partial curve, poor fit]",
Cc1cccc([C@@H]2CN(C)CCc3c2cc(O)c(O)c3Cl)c1,"inconclusive: 8.91 µM [inhibitor, partial curve, poor fit]",
CC(=O)N1N=C(c2ccco2)CC1c1ccco1 (stereo not drawn),,inactive: 0%
Cc1cc(Cn2nnc3ccccc32)c(O)c(C(C)(C)C)c1,"inconclusive: 50.1 µM [inhibitor, partial curve, poor fit]",
CCc1cc(C(=O)N2CCOCC2)c(NC2=NS(=O)(=O)c3ccccc32)s1,"inconclusive: 28.2 µM [inhibitor, partial curve, poor fit]",
Cc1c(NC(=O)c2nn3c(C(F)(F)F)cc(-c4ccccc4)nc3c2Cl)c(=O)n(-c2ccccc2)n1C,"inconclusive: 28.2 µM [inhibitor, partial curve, poor fit]",
c1ccc(C2=NOC(c3nnc(-c4ccccc4)o3)C2)cc1 (stereo not drawn),"inconclusive: 89.1 µM [inhibitor, partial curve, poor fit]",
CCOc1cc(N2CCOCC2)c(OCC)cc1NC(=O)c1cc(-c2ccco2)nc2ccccc12,"inconclusive: 44.7 µM [inhibitor, partial curve, poor fit]",
